# Laboratory results reported in paper PMC9262611.
# These are yes or no findings as the source states them, for the method shown. Sequences can lack the tags named with a protein.
# Molecular target: T1, RpoB yeast two-hybrid fusion (Arabidopsis thaliana) (UniProt P50546)
# T1 sequence: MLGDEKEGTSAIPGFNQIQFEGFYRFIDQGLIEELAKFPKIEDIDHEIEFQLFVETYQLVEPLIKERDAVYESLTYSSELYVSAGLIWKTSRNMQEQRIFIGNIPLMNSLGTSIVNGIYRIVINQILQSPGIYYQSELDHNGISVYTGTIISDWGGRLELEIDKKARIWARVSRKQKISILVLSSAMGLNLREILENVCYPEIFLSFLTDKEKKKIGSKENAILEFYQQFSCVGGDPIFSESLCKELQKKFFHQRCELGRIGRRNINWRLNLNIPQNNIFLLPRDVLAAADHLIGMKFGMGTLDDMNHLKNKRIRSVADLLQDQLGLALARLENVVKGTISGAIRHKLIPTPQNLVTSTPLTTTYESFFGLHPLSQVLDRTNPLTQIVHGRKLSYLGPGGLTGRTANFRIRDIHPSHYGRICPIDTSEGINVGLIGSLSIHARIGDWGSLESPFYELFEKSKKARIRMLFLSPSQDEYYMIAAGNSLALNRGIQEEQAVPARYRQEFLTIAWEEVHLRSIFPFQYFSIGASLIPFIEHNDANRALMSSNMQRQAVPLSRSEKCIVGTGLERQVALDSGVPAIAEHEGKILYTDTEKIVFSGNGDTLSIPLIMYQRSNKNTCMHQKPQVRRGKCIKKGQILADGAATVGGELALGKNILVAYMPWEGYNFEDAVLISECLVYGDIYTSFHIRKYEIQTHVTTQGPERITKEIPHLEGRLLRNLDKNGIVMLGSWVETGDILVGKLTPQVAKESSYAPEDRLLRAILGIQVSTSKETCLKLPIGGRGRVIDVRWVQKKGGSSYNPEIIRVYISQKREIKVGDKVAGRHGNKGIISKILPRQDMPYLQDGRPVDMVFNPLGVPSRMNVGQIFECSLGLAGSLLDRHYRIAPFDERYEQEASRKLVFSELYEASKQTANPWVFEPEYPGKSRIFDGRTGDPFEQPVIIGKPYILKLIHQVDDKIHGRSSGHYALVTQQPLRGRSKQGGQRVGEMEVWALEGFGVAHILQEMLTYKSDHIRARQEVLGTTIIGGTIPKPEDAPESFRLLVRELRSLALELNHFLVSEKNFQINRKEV
# Assay: two-hybrid; yeast Y2HGold, pGBKT7 bait and pGADT7 prey, growth on SD-Leu-Trp-His-Ade with X-α-Gal
substance,measurement,value
AD-AtNusG (Arabidopsis thaliana),binding,no binding
